# Reference: the supplement of paper PMC3334620
# In all, about 33,000 sequences were measured (“E-score (-0.5 to 0.5)”: median about -0.0014, highest 2% from about 0.25 on). The list shows a part of the results.
# Molecular target: T1, Cad1 (UniProt P24813)
# T1 sequence: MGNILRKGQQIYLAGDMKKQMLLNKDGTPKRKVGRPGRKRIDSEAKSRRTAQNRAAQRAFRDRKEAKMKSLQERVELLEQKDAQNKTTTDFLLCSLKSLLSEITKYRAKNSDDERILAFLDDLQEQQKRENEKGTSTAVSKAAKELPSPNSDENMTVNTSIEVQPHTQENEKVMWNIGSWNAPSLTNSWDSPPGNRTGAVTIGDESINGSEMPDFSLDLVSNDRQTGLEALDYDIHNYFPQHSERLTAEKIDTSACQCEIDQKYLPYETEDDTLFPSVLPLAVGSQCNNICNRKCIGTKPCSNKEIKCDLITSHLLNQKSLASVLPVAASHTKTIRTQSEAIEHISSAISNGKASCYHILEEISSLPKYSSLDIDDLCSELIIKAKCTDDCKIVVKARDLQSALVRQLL
# Assay: PBM E-score (8-mer binding enrichment) (E-score (-0.5 to 0.5)); higher = stronger / more preferred TF binding
# Settings: protein concentration: 100 nM; construct: GST-full length
# In short: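 Yeast transcription factors carrying a GST tag, as full-length proteins or DNA-binding domains, were produced by PURExpress in vitro transcription/translation. About 100-200 nM protein was applied to universal all-10-mer Agilent arrays, double-stranded by primer extension on fresh or once-stripped slides. Bound protein was detected with fluorescent anti-GST, and scans were normalised with masliner. The Universal PBM Analysis Suite gave each ungapped eight-base word, pooled with its reverse complement, an E-score, a modified Wilcoxon-Mann-Whitney statistic.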
row,Sequence,PBM E-score
1,AGGAAAAA,0.0617
2,CGTAATGC,0.0737
3,TCAAGAAA,0.244
4,AATACCTA,0.168
5,AGAAGCAT,-0.134
6,ATTCGATA,0.0458
7,GGAAAAAA,0.0423
8,CAAGACGC,-0.0382
9,CACCAAGG,-0.0865
10,GAGAAAAA,0.125
11,TCCGGTAA,0.102
12,ATGCTACC,-0.0565
13,AAAGCGAT,0.182
14,CGCTACAG,-0.0564
15,ATATCGAA,0.187
16,AAGAAAAC,0.0993
17,ATACGGAC,-0.0428
18,ACGATCTC,0.00327
19,AAGGTTCT,-0.0896
20,CTATGTCC,-0.143
21,CCTGGTTC,-0.0941
22,CCGTGAAC,-0.0127
23,CGATTTTA,0.136
24,ACCCACAG,-0.113
25,CGCGAATA,0.145

row,Sequence,PBM E-score
1,CAGAAATC,0.0998
2,CAGACGTC,0.00703
3,ACACACCG,-0.00219
4,ATCAAGTC,-0.0562
5,AGTCTCTG,-0.137
6,CAGCGGGA,-0.0349
7,AGAAAATC,-0.0518
8,AGATCGAT,0.218
9,ACGATTTC,0.127
10,AAAAAGGA,-0.108
11,TGTTAAAA,0.0663
12,CCTGAAGC,-0.285
13,ATATTAAA,0.385
14,CGGTACCA,-0.0413
15,CTTTACGA,-0.137
16,CGAAGTAG,0.154
17,ACGCAGGC,-0.132
18,AAGTCCTG,-0.138
19,TAAGGTGA,-0.0279
20,ACGTTAGC,0.229
21,ATGTACTG,-0.0182
22,CAGTAAAC,0.0334
23,CCTAGGCA,-0.0995
24,ATTAATAC,0.199
25,ACAACGAC,0.0374

row,Sequence,PBM E-score
1,GAGGCCTC,-0.203
2,ACGGCTCC,-0.0818
3,CTCAGGTA,0.0682
4,ATTGCGAC,0.0407
5,CACTTCTC,-0.218
6,GCGGTGGA,-0.0242
7,AGGCGGAT,0.0121
8,CCTTACTC,-0.0289
9,CGAGTGCA,0.122
10,AGCTTATC,0.0337
11,CTCCCGAG,-0.128
12,CGGCTGAG,-0.117
13,GCATGTAC,-0.0209
14,CTCGTAAG,0.264
15,CATAGCAA,0.0676
16,GGTGAGCA,-0.146
17,ATGGTTTG,0.0111
18,GATTCCCC,-0.193
19,AACTGTTG,-0.108
20,GAAGTCGA,0.138
21,AGCCAAGC,-0.181
22,GCTCTCAA,0.00709
23,ATAGCAGA,0.0493
24,AAGCCGCA,0.021
25,CAAAACAG,0.0402

row,Sequence,PBM E-score
1,GAAAGGCC,-0.0684
2,GGGAACCA,-0.227
3,CTGGTACA,0.082
4,GGGGACTA,-0.264
5,ACCTGGAC,-0.0874
6,AGTAAAGA,0.167
7,AATTTATC,0.293
8,CAAGACAA,0.211
9,AAAACTAT,0.0232
10,CTAGATAC,0.139
11,AATCGGAG,0.0523
12,CTAGGTCC,0.0251
13,AGCCACCG,-0.0702
14,TGCTCCCA,-0.0911
15,GGGTGCCA,-0.0575
16,TTGTACAA,0.234
17,AGGTAAAA,-0.0024
18,AATCTTTG,0.0579
19,GCAGCTGA,0.0932
20,CTACAAAA,-0.0777
21,GCGACAGA,0.0524
22,GAACACCC,-0.101
23,ACTGGGAG,-0.204
24,CGGCGAGC,0.0619
25,GCGATAAA,0.191

row,Sequence,PBM E-score
1,AACGCGCT,0.0463
2,GCAAATTA,0.0483
3,CCACTGGC,-0.0488
4,AGGCACTG,-0.0317
5,CGAAGACA,-0.171
6,CCTGCAAG,-0.092
7,TGACGGAA,0.0247
8,AGAGCCCT,-0.122
9,TACTCTAA,0.0181
10,AGGGGTCA,-0.304
11,CATTCGTA,0.0457
12,ACATCATG,-0.124
13,GCTGACAC,0.247
14,AAGTTGCC,-0.0811
15,AAGGCTCA,-0.00772
16,ATGGCCCG,0.0172
17,AATAGTAA,0.203
18,AGCGGGGG,-0.381
19,CAGGCGAA,-0.133
20,ACTACACG,0.00852
21,ATCTTTTG,-0.0581
22,AGTTCTTC,0.0313
23,CGCTTCAA,0.00217
24,CCTTTCGA,-0.163
25,GCGCTTTA,0.0211

row,Sequence,PBM E-score
1,TCGGACCA,0.0901
2,CTATGACC,-0.0408
3,AACTATCG,0.046
4,GCGAGATA,0.156
5,ACGAGAGC,-0.191
6,ACTAGCTA,0.055
7,AGGGCTAA,0.0733
8,CACGGCTA,0.14
9,CTGGCCTA,-0.107
10,GAGCAACA,0.00421
11,AGTTACTA,0.109
12,CGATCAAG,-0.0491
13,GACTAGGA,-0.0312
14,ATACCCGG,-0.0506
15,GCATAACC,-0.0625
16,ATGGAAAC,0.0338
17,CACTGGGG,-0.237
18,CAGACAAA,0.212
19,GTTTGTAA,0.137
20,CCCAGATC,-0.145
21,CAAGAGTC,0.00519
22,ACATTCTG,-0.0173
23,AACCGCCC,-0.0466
24,CACAATGC,-0.119
25,GCGTCGTA,0.0808

row,Sequence,PBM E-score
1,CCTGCAGA,-0.0447
2,GCAGTGGA,0.134
3,ACACTTAG,0.0262
4,AGCGGGAC,-0.023
5,GATTACGA,0.318
6,GAAAGCAC,0.0219
7,ATGAATCG,0.00384
8,AAGGCTAA,0.0725
9,GATGGAGC,-0.271
10,GACTGCCC,-0.108
11,GACAGGGA,0.0209
12,CGAGTTAG,0.00576
13,CCCGTAGG,-0.155
14,AAAGCGTT,0.0459
15,ATAGCCGG,0.0742
16,CCTCCATA,-0.254
17,GGCACCCA,-0.173
18,CTACACAA,0.1
19,CGCTCCCA,-0.0429
20,CCTAACTA,0.123
21,GTACCTAC,-0.114
22,CTCACCGA,-0.12
